Positions of bridges follow the written chain, without caps; N, C: chain ends. Non-standard residues stand in square brackets, D forms with d. *: point of attachment. NMeF = CN[C@@H](Cc1ccccc1)C(=O)O; NMeL = CN[C@@H](CC(C)C)C(=O)O; NMeV = CN[C@H](C(=O)O)C(C)C; NMeA = CN[C@@H](C)C(=O)O; Piperidide = C1CCN(*)CC1; Sar = CNCC(=O)O
Tests used:
[1] = general procedure: Fmoc solid-phase peptide synthesis; 2-Chlorotrityl resin; DIC/HOAt; conditions: whole synthesis, scale of the general procedure 250 to 300 mg resin per column
[2] = general procedure: Fmoc solid-phase peptide synthesis; Fmoc-Asp(O-Trt(2-Cl)-Resin)-MePhe-Ala-pip; DIC/HOAt; conditions: whole synthesis
[3] = general procedure: Fmoc solid-phase peptide synthesis; Sieber Amide Resin; DIC/HOAt; conditions: whole synthesis; for isolated yield: scale of the general procedure 250 to 300 mg resin per column
[4] = general procedure: Fmoc solid-phase peptide synthesis; 2-Chlorotrityl resin (Fmoc-Asp-OBn); DIC/HOAt; conditions: whole synthesis, scale 1.36 mmol
[5] = general procedure: Fmoc solid-phase peptide synthesis; Sieber Amide resin; DIC/HOAt; conditions: whole synthesis

With “A[NMeL][NMeA]T[Sar][NMeV]AF[NMeL]LD[NMeF]A-Piperidide (lactam N-11; SMILES CC(C)C[C@@H]1NC(=O)[C@H](CC(C)C)N(C)C(=O)[C@H](Cc2ccccc2)NC(=O)[C@H](C)NC(=O)[C@H](C(C)C)N(C)C(=O)CN(C)C(=O)[C@H]([C@@H](C)O)NC(=O)[C@H](C)N(C)C(=O)[C@H](CC(C)C)N(C)C(=O)[C@H](C)NC(=O)C[C@@H](C(=O)N(C)[C@@H](Cc2ccccc2)C(=O)N[C@@H](C)C(=O)N2CCCCC2)NC1=O)” the isolated yield [1] was 5% and the isolated mass [2] was 4.27 mg.

For “Acbz-Cys(StBu)-Lys(Me2)-Trp-^HOGly-Pro-Lys(Acbz-Thz)-Asp-Pro-NH2”, the isolated mass [3] was 179 mg and the isolated yield [3] was 13%.

Substance “Acbz-Cys(StBu)-Gly-Lys(Me2)-Trp-Cys(StBu)-Pro-Lac-Lys(Acbz-Thz)-Asp-Pro-NH2” has an isolated mass ([3]; scale 160 mg resin per column) of 184.6 mg and an isolated yield [3] of 24%.

Substance “H-Cys(CH2CONH2)-Thr(tBu)-Thr(tBu)-Thr(tBu)-Arg(Pbf)-Asp-OBn” has an isolated mass [4] of 180 mg and an isolated yield [4] of 10%.

In the case of “Acbz-Cys(StBu)-Gly-Lys(Me2)-Trp-Cys(StBu)-Pro-^HOGly-Lys(Acbz)-Asp-Pro-NH2”, the isolated mass [5] is reported as 360 mg and the isolated yield ([5]; scale of the general procedure 250 to 300 mg resin per column) is reported as 39%.
